Biological target: turkey β3C-adrenoceptor (tβ3C) (Meleagris gallopavo, UniProt A0A803YLI8)
Assay: CRE-SPAP production, CHO tβ3C cells
Format: cell-based
Conditions: read-out: % isop max

Protein sequences, listed by entry. Tags and fused reporters are not part of them.
UniProt A0A803YLI8, entry or part of it: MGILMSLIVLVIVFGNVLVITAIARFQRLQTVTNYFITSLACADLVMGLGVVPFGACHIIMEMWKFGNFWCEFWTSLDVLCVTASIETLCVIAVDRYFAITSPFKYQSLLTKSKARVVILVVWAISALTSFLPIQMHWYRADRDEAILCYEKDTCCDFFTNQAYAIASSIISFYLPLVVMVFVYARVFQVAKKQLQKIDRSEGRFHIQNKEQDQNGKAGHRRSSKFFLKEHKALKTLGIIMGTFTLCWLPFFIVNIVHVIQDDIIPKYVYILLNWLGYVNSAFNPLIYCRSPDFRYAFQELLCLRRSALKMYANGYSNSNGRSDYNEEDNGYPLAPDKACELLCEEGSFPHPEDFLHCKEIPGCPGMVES

Structure (SMILES): COc1ccc(CC(C)NCC(O)c2ccc(O)c(NC=O)c2)cc1 (stereo not shown) [Formoterol]
- Emax: 104 ± 3%

From article PMC2994877, “A Full Pharmacological Analysis of the Three Turkey β-Adrenoceptors and Comparison with the Human β-Adrenoceptors” (PLoS ONE, 2010)
